The source of these data is PMC10294715.

Amino acid sequences for entries named in this document (tags omitted).
UniProt D3Z6P9, entry or part of it E395Q: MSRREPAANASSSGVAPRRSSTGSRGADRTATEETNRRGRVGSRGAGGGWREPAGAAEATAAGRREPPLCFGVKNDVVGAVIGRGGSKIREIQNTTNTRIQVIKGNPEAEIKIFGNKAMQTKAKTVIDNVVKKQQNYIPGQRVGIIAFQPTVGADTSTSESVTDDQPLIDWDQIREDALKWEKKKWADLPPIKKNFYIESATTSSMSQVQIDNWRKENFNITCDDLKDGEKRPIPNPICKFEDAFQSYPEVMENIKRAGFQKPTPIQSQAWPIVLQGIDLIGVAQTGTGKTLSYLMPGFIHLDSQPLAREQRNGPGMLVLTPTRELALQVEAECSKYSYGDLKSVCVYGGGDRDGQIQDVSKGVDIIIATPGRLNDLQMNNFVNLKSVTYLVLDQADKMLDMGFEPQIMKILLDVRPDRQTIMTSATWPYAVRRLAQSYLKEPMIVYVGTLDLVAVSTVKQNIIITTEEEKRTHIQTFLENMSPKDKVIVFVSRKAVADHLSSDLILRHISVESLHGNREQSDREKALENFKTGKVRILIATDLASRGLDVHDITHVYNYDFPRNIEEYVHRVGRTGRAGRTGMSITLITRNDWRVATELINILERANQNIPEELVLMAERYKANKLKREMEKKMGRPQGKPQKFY

For at least one entry, the source does not settle the construct or the ends of the probe. At least one verdict was read from the data and is not stated in words by the source.

The target in this series is DDX43-KI E395Q (Mus musculus) (UniProt D3Z6P9). Nature of the series: EMSA. The following applies: EMSA: 10 nM biotin-RNA, 50 mM Tris-HCl pH 7.5, 100 mM KCl, 2.5% glycerol, 0.05% NP-40, 4 mM EDTA, 1 mM DTT, RiboLock 2 U, 37 C 30 min; 8% native TBE PAGE at …; recombinant protein; protein details: His tag (Ni-NTA, pET28a); label: 3' biotin. A general note: In EMSA bound probe runs differently from free probe, usually more slowly.
GGGGAGGGUCCGGGUGGGA [RG4 only sequence]: the binding result is on record as “binds”. Turning to “CGGCGGAGGGGCGGGAGGGUCUGCAGCGGAGAGAGG [Elfn2 3' tailed RG4 sequence1]”, the binding result is on record as “binds”. On to “CGGCGGGAGGCGGGGGUGGCAGUGUCUGCGCGCACA [Elfn2 3' tailed RG4 sequence2]”, for which the binding result is reported as “binds”.

As for “CGGCGGAGGGGCGGGAGGGU [Elfn2 RG4 only sequence1]”, the binding result was “binds”. For “GGGGAGGGUCCGGGUGGGACCGGUGGUGUUUUUU [3' tailed RG4 sequence]”, the binding result is “binds”. Then “CGGCGGGAGGCGGGGGUGGC [Elfn2 RG4 only sequence2]”, with “binds”.
